In patent US20050095242A1 (published 2005) one finds binding data, which are given here for 20 molecules.

The labels stand for the following.
T1: BSA-Compound 1 conjugate (human CCR4 extracellular region peptide Compound 1 conjugated to bovine serum albumin) (human)
T1 sequence (peptide, conjugated to BSA (bovine serum albumin) via SMCC): DESIYSNYYLYESIPKPC

B1: anti-CCR4 CDR-grafted antibody Gal3LV1 (antibody, V domains shown)
VH: EVQLVESGGDLVQPGRSLRLSCAASGFIFSNYGMSWVRQAPDKRLEWVATISSASTYSYYPDSVKGRFTISRDNAKNSLYLQMNSLRVEDTALYYCGRHSDGNFAFGYWGQGTLVTVSS
VL: DVVMTQSPLSLPVTPGEPASISCRSSRNIVHINGDTYLEWYLQKPGQSPQLLIYKVSNRFSGVPDRFSGSGSGTDFTLKISRVEAEDVGVYYCFQGSLLPWTFGQGTKVEIK
B2: anti-CCR4 CDR-grafted antibody Gal1LV3 (antibody, V domains shown)
VH: B1 VH with D42G, R44G
VL: B1 VL with V3L
B3: anti-CCR4 CDR-grafted antibody Gal1LV1 (antibody, V domains shown)
VH: B1 VH with D42G, R44G
VL: B1 VL
B4: anti-CCR4 CDR-grafted antibody HV3LV3 (antibody, V domains shown)
VH: B1 VH with D10G, R16G, D42G, R44G, A49S, A75S, S78T, V88A, L93V
VL: B1 VL with V3L
B5: anti-CCR4 CDR-grafted antibody HV0LV3 (antibody, V domains shown)
VH: EVQLVESGGGLVQPGGSLRLSCAASGFTFSNYGMSWVRQAPGKGLEWVSTISSASTYSYYPDSVKGRFTISRDNSKNTLYLQMNSLRAEDTAVYYCARHSDGNFAFGYWGQGTLVTVSS
VL: B1 VL with V3L
B6: anti-CCR4 CDR-grafted antibody Gal3LV3 (antibody, V domains shown)
VH: B1 VH
VL: B1 VL with V3L
B7: anti-CCR4 CDR-grafted antibody Gal0LV3 (antibody, V domains shown)
VH: B1 VH with D42G, R44G, G97A
VL: B1 VL with V3L
B8: anti-CCR4 CDR-grafted antibody Gal2LV1 (antibody, V domains shown)
VH: B1 VH with G97A
VL: B1 VL
B9: anti-CCR4 CDR-grafted antibody Gal0LV2 (antibody, V domains shown)
VH: B1 VH with D42G, R44G, G97A
VL: B1 VL with V2I, V3L
B10: anti-CCR4 CDR-grafted antibody HV0LV1 (antibody, V domains shown)
VH: B5 VH
VL: B1 VL
B11: anti-CCR4 CDR-grafted antibody HV1LV3 (antibody, V domains shown)
VH: B5 VH with T28I
VL: B1 VL with V3L
B12: anti-CCR4 CDR-grafted antibody Gal2LV3 (antibody, V domains shown)
VH: B1 VH with G97A
VL: B1 VL with V3L
B13: anti-CCR4 CDR-grafted antibody HV1LV0 (antibody, V domains shown)
VH: B5 VH with T28I
VL: B1 VL with V2I
B14: anti-CCR4 CDR-grafted antibody HV1LV2 (antibody, V domains shown)
VH: B5 VH with T28I
VL: B1 VL with V2I, V3L
B15: anti-CCR4 CDR-grafted antibody HV0LV2 (antibody, V domains shown)
VH: B5 VH
VL: B1 VL with V2I, V3L
B16: anti-CCR4 CDR-grafted antibody HV1LV1 (antibody, V domains shown)
VH: B5 VH with T28I
VL: B1 VL
B17: anti-CCR4 CDR-grafted antibody HV2LV3 (antibody, V domains shown)
VH: B5 VH with A97G
VL: B1 VL with V3L
B18: anti-CCR4 CDR-grafted antibody HV3LV0 (antibody, V domains shown)
VH: B5 VH with T28I, A97G
VL: B1 VL with V2I
B19: anti-CCR4 CDR-grafted antibody Gal0LV1 (antibody, V domains shown)
VH: B1 VH with D42G, R44G, G97A
VL: B1 VL
B20: anti-CCR4 CDR-grafted antibody HV2LV0 (antibody, V domains shown)
VH: B5 VH with A97G
VL: B1 VL with V2I

Residue numbers refer to the chain shown, from its start. Results are given in words; binding and its absence hold for the method and conditions named. Some binding calls cover weakened binding; strength is not graded here.

This assay has as its target T1, BSA-Compound 1 conjugate (human CCR4 extracellular region peptide Compound 1 conjugated to bovine serum albumin) (human). In words: ELISA, COS-7 culture supernatant on BSA-Compound 1 conjugate. (In general: ELISA stands for enzyme-linked immunosorbent assay.)
For B1, the binding result is “binds”.

Regarding B2, the binding result is listed as “binds”.

With B3, the binding entry is given as “binds”.

Turning to B4, the binding entry is recorded as “binds”.

Regarding B5, the binding entry is “binds”.

In the case of B6, the binding result is “binds”.

For the molecule B7, the binding result is listed as “binds”.

For the molecule B8, the binding entry was “binds”.

Take B9: the binding entry is recorded as “binds”.

For B10, the binding result is on record as “binds”.

B11: the binding entry was “binds”.

Regarding B12, the binding result is “binds”.

For the molecule B13, the binding entry is “binds”.

Consider B14, for which the binding result is “binds”.

With B15, the binding result is “binds”.

On to B16, for which the binding entry is on record as “binds”.

Regarding B17, the binding entry is on record as “binds”.

Consider B18, for which the binding entry is given as “binds”.

As for B19, the binding entry is on record as “binds”.

With B20, the binding result is listed as “binds”.
